How the values were obtained:
CD4+ T cells = experiment: exogenous autologous normal donor restimulation assay, TNFα/IFNγ double positive CD4+ T cells by flow cytometry; format: cell-based, human; details: donor independent, peptide pool 10 μg/mL, healthy donors
Experimental: (§1) The immunogenicity of neoantigens was assessed using the exogenous autologous normal donor restimulation assay. […] The lyophilized peptides were solubilized in 100% DMSO.
CD1c+ Dendritic Cells (CD1c+DC) isolated from human healthy PBMCs were thawed using media (IMDM (Gibco) supplemented with glutamine, HEPES, 5% human serum (Sigma), and 1× Pen-Strep). DC cells were resuspended in media supplemented with IL-4 (Peprotech, 20 ng/mL) and GM-CSF (Gibco, 20 ng/mL), plated in 6 well microplates, and rested overnight at 37° C. and 5% CO2 incubator. The following day, DC cells were counted and plated in a 96 well round bottom microplate at a concentration of 30,000 viable cells per well. Lyophilized neoantigen peptide pools (15-mer peptides with 8-mer overlapping peptide sequences) were solubilized in 100% DMSO with a stock concentration of 20 mg/mL Neoantigen peptides pools were added to DCs for a final concentration of 10 μg/mL and rested for 2 hours at 37° C. and 5% CO2 incubator. […]
(§2) On Day 11, cells were re-stimulated with identical experimental peptide pools or controls, at same concentration as peptide stimulation on Day 1. […] Cells were washed and resuspended in stain buffer, analyzed, and recorded in a BD Celesta flow cytometer.
(§3) Flow cytometry analysis was conducted on FlowJo v10.6 software. […] The CD8+ and CD4+ T cells were analyzed for TNFα and IFNγ expression. […]

CD8+ T cells = experiment: exogenous autologous normal donor restimulation assay, TNFα/IFNγ double positive CD8+ T cells by flow cytometry; format: cell-based, human
Experimental: as §1
CD1c+ Dendritic Cells (CD1c+DC) isolated from human healthy PBMCs were thawed using media (IMDM (Gibco) supplemented with glutamine, HEPES, 5% human serum (Sigma), and 1× Pen-Strep). DC cells were resuspended in media supplemented with IL-4 (Peprotech, 20 ng/mL) and GM-CSF (Gibco, 20 ng/mL), plated in 6 well microplates, and rested overnight at 37° C. and 5% CO2 incubator. The following day, DC cells were counted and plated in a 96 well round bottom microplate at a concentration of 30,000 viable cells per well. Lyophilized neoantigen peptide pools (15-mer peptides with 8-mer overlapping peptide sequences) were solubilized in 100% DMSO with a stock concentration of 20 mg/mL Neoantigen peptides pools were added to DCs for a final concentration of 10 μg/mL and rested for 2 hours at 37° C. and 5% CO2 incubator. CEF Peptide Pool “Plus” (Cellular Technologies, Ltd.) was utilized as a positive control (each viral peptide at a final concentration of 4 ug/ml) and DMSO at the same final concentration (0.05%) as the experimental peptides was utilized as a negative control. After 2 hours, DC cells were irradiated with 50 gray of ionizing radiation. Autologous CD3+ Pan-T cells isolated from human normal PBMCs were thawed using media. Following irradiation, autologous Pan-T cells were added to the irradiated DCs at 300,000 viable cells per well. Human IL-15 (Peprotech) was added to all wells at final concentration of 10 ng/ml. Plates were incubated at 37° C. and 5% CO2 incubator for a total of 12 days. […]
as §2, §3

B1: KQYQLTVQMESHSLPQAGVQWHDFVSPQPLPPGFKRFSCLSFLSSWDYRLQPPHLANFFVFLVETGFHHVGQAGLKLLTSDDLPASASQSAGITGVSHHARPNFFFSLLLS (peptide)
chain: KQYQLTVQMESHSLPQAGVQWHDFVSPQPLPPGFKRFSCLSFLSSWDYRLQPPHLANFFVFLVETGFHHVGQAGLKLLTSDDLPASASQSAGITGVSHHARPNFFFSLLLS
notes: neoantigen, alternative splicing of SPATA17
- Fold change (CD4+) vs. DMSO (CD4+ T cells; maximum CD4+ T-cell response (TNFα and IFNγ)): 89.66 fold
- Frequency (TNFα + IFNγ + CD4 T cells) (CD4+ T cells; maximum CD4+ T-cell response): 0.14%
- Fold change (CD8+) vs. DMSO (CD8+ T cells; maximum CD8+ T-cell response (TNFα and IFNγ), donor independent, peptide pool 10 μg/mL, healthy donors): 162.59 fold
- Frequency (TNFα + IFNγ + CD8 T cells) (CD8+ T cells; maximum CD8+ T-cell response, donor independent, peptide pool 10 μg/mL, healthy donors): 8.78%
- Immunogenic (yes/no) (CD8+ T cells; positive if CD8+ and/or CD4+ double positive TNFα/IFNγ frequency >=3-fold over DMSO and at least 0.01%): Yes

Reference: patent US11945881B2, “Neoantigens expressed in ovarian cancer and their uses” (Janssen Biotech, Inc., priority 2020, dated 2024)
